Data as given in patent US5593834.
The comparison behind a weaker result is the experiment's own reference, which may not be listed here. For part of these data: Construct, isoform or probe ends are uncertain for at least one entry.

Amino acid sequences for entries named in this document (tags omitted). Residues count along the entry.
UniProt P00639, 23-282: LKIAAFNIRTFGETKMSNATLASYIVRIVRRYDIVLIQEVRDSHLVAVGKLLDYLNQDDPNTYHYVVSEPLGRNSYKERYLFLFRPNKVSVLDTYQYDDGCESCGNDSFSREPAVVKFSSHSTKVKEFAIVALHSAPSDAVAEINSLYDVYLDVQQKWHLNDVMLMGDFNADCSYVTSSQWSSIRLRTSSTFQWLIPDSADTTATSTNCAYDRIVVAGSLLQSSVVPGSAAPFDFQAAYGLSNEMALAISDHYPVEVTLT

Experiments:
[1] = test system: AluI restriction endonuclease; assay: enzyme reaction in vitro; conditions: purified native protein, protein details: commercial, BRL, label: labelled (Cherenkov counted)
DNase I = DNase I (UniProt P00639); assay: enzyme reaction in vitro; conditions: values in Table 6 not shown, purified native protein, label: labelled (Cherenkov counted)

For “AAAAAGCTTTTT (double strand) [(AA)2 12-mer]”, which “activity on this sequence” value ([1]; reference for (AT)2, which is cleaved 3.02 times faster) is on record?
Its value is “less active”.

How did the “activity on this sequence” value ([1]; most resistant, more than 75% uncleaved after 70 min) turn out when “AAAAAAAAAGCTTTTTTTTT (double strand) [(AA)4 20-mer]” was run?
Its value is “less active”.

What does the source list for “AAAAAAAGCTTTTTTT (double strand) [(AA)3 16-mer]”?
activity on this sequence ([1]; reference for (AT)3, which is cleaved 2.95 times faster): less active; activity on this sequence (DNase I; less reactive than (AT)3): less active

With “AAATATAGCTATATTT (double strand) [AA(AT)2 16-mer]” as the sequence, how does the “activity on this sequence” value ([1]; rate between (AT)3 and (AA)3) read?
Its value is “active”.

With “ATATATAGCTATATAT (double strand) [(AT)3 16-mer]” as the sequence, how does the “activity on this sequence” value (DNase I; more reactive than (AA)3) read?
Its value is “active”.
